Here are results for 2 substances from publication PMC6368335, “Inhibition of the Staphylococcus aureus c-di-AMP cyclase DacA by direct interaction with the phosphoglucosamine mutase GlmM” (PLoS Pathogens, 2019).

No constants are given. Whether binding was seen depends on the method and setting. A result given as binding can be weak or reduced; the word gives no strength. Tags and fused reporters may be left off the sequences shown.

Experiment [1] concerns the target T1, S. aureus phosphoglucosamine mutase GlmM, C-terminally His-tagged (GlmM-His) (S. aureus) (UniProt P0C0V7).
T1 sequence: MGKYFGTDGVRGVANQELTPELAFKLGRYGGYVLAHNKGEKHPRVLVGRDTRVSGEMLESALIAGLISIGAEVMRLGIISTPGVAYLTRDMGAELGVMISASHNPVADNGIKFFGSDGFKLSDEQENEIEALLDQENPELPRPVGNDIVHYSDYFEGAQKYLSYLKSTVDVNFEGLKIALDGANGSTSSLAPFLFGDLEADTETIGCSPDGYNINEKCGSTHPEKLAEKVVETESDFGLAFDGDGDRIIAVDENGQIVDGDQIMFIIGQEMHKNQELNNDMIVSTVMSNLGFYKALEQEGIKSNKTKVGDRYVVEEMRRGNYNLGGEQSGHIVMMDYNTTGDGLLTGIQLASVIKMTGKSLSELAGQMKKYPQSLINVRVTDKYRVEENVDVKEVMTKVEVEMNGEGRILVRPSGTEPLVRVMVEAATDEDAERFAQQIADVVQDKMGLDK
Put plainly: pull-down; 50 uM tag-less DacACD and 50 uM GlmM-His mixed in 30 mM Tris pH 7.5, 150 mM NaCl, 10 min on ice; Ni-NTA column, wash with 10 mM imidazole, elution with 500 mM imidazole; Coomassie-stained SDS-PAGE; both purified.

Experiment [2] addresses T1, S. aureus phosphoglucosamine mutase GlmM, C-terminally His-tagged (GlmM-His) (S. aureus). The experiment is described as follows: SEC; E. coli lysates with His-DacACD and GlmM-His mixed (10 min on ice), Ni-NTA, then Superdex 200 10/60 Hiload in 30 mM Tris pH 7.5, 150 mM NaCl; fractions on Coomassie-stained SDS-PAGE. (Size exclusion chromatography separates by hydrodynamic size, large species first.)

“S. aureus DacA catalytic domain (DacACD), tag-less (domain or fragment)”: the binding entry in experiment [1] is “binds”. Consider “S. aureus His-DacACD (N-terminal His-tag fusion of the DacA catalytic domain) (domain or fragment)”, for which the binding entry in experiment [2] is “binds”.
